Reference: patent US20020054941A1, “Methods and compositions to enhance tenderness and value of meat” (The Board of Regents of the University of Nebraska, priority 2000, published 2002)

Assays:
[1] = system: triceps brachii beef muscles; experiment: Objective color, pre-rigor injection of whole muscle
[2] = system: triceps brachii beef muscles; experiment: Oxidation-reduction potential, pre-rigor injection of whole muscle; settings: 200 mM, calcium chloride 300 mM
[3] = system: semimembranosus beef muscles; experiment: NAD and NADH content, pre-rigor injection of whole muscle
[4] = system: supraspinatus beef muscles; experiment: R-value, pre-rigor injection of whole muscle
[5] = system: supraspinatus beef muscles; experiment: Oxidation-reduction potential, pre-rigor injection of whole muscle
[6] = system: triceps brachii beef muscles; experiment: Sarcomere length, pre-rigor injection of whole muscle; settings: 72 hours after injection; 200 mM, calcium chloride 300 mM
[7] = system: semimembranosus beef muscles; experiment: R-value, pre-rigor injection of whole muscle
[8] = system: supraspinatus beef muscles; experiment: NAD and NADH content, pre-rigor injection of whole muscle
[9] = system: semimembranosus beef muscles; experiment: Oxidation-reduction potential, pre-rigor injection of whole muscle
[10] = system: triceps brachii beef muscles; experiment: NAD and NADH content, pre-rigor injection of whole muscle
[11] = system: triceps brachii beef muscles; experiment: Water holding capacity, pre-rigor injection of whole muscle; settings: 200 mM, calcium chloride 300 mM
[12] = system: triceps brachii beef muscles; experiment: R-value, pre-rigor injection of whole muscle; settings: 200 mM, calcium chloride 300 mM
[13] = system: semimembranosus beef muscles; experiment: Sarcomere length, pre-rigor injection of whole muscle; settings: 72 hours post-mortem, 200 mM, calcium chloride 300 mM
[14] = system: supraspinatus beef muscles; experiment: Objective color, pre-rigor injection of whole muscle
[15] = system: semimembranosus beef muscles; experiment: Water holding capacity, pre-rigor injection of whole muscle; settings: 200 mM, calcium chloride 300 mM
[16] = 0 h (before injection), lightness
[17] = 0 h (before injection), redness
[18] = 0 h (before injection), yellowness
[19] = 24 h, lightness, 200 mM, calcium chloride 300 mM
[20] = 24 h, redness, 200 mM, calcium chloride 300 mM
[21] = 24 h, yellowness, 200 mM, calcium chloride 300 mM
[22] = 72 h, lightness, 200 mM, calcium chloride 300 mM
[23] = 72 h, yellowness, 200 mM, calcium chloride 300 mM
[24] = 24 h, 200 mM, calcium chloride 300 mM
[25] = 72 h, 200 mM, calcium chloride 300 mM
[26] = 0 h (before injection), ratio of hypoxantine to nucleotides

[Ca+2].[Cl-].[Cl-] [Calcium chloride, calcium chloride, reference compound]
L*value, 0 h [1, 16]: 21.61 | a*value, 0 h [1, 17]: 18.08 | b*value, 0 h [1, 18]: 3.45 | L*value, 24 h [1, 19]: 28.34 | a*value, 24 h [1, 20]: 27.23 | b*value, 24 h [1, 21]: 7.10 | L*value, 72 h [1, 22]: 32.14 | b*value, 72 h [1, 23]: 6.22 | Redox potential, 24 h ([2]; 24 h): 127.10 mV | Redox potential, 72 h ([2]; 72 h): 134.35 mV | NAD, 0 h ([3]; 0 h (before injection)): .525 μmol/g tissue | NADH, Oh ([3]; 0 h (before injection)): .126 μmol/g tissue | NAD, 24 h [3, 24]: .328^ab μmol/g tissue | NADH, 24 h [3, 24]: .073^a μmol/g tissue | NAD, 72 h [3, 25]: .118^bc μmol/g tissue | NADH, 72 h [3, 25]: .054^ab μmol/g tissue | R-value, 0 h [4, 26]: .85 | R-value, 24 h [4, 24]: 1.26 | R-value, 72 h [4, 25]: 1.43 | Redox potential, 0 h ([5]; 0 h (before injection)): 122.45 mV | Redox potential, 24 h [5, 24]: 131.00 mV | Redox potential, 72 h [5, 25]: 133.47 mV | Sarcomere length [6]: 1.31^b μm | R-value, 0 h [7, 26]: .83 | R-value, 72 h [7, 25]: 1.45 | NAD, 0 h ([8]; 0 h (before injection)): .366 μmol/g tissue | NADH, 0 h ([8]; 0 h (before injection)): .074 μmol/g tissue | NAD, 24 h [8, 24]: .152^ab μmol/g tissue | NADH, 24 h [8, 24]: .066 μmol/g tissue | NAD, 72 h [8, 25]: .089^ab μmol/g tissue | NADH, 72 h [8, 25]: .041^ab μmol/g tissue | Redox potential, 0 h ([9]; 0 h (before injection)): 120.10 mV | Redox potential, 24 h [9, 24]: 129.97^a mV | Redox potential, 72 h [9, 25]: 127.92^c mV | NAD, 0 h ([10]; 0 h (before injection)): .425 μmol/g tissue | NADH, 0 h ([10]; 0 h (before injection)): .080 μmol/g tissue | NAD, 24 h [10, 24]: .193^b μmol/g tissue | NADH, 24 h [10, 24]: .062 μmol/g tissue | NAD, 72 h [10, 25]: .117^a μmol/g tissue | NADH, 72 h [10, 25]: .052 μmol/g tissue | WHC, 72 h (Water Holding Capacity) [11]: 40.09% | R-value, 24 h ([12]; 24 h): 1.31 | R-value, 72 h ([12]; 72 h): 1.44 | Sarcomere length [13]: 1.48^c μm | Sarcomere length ([13]; listed as CaCl2): 1.48 μm | L*value, 0 h [14, 16]: 20.07 | a*value, 0 h [14, 17]: 18.44 | b*value, 0 h [14, 18]: 3.27 | L*value, 24 h [14, 19]: 28.41 | a*value, 24 h [14, 20]: 24.80^bc | b*value, 24 h [14, 21]: 6.60^b | L*value, 72 h [14, 22]: 30.86 | a*value, 72 h ([14]; 72 h, redness, 200 mM, calcium chloride 300 mM): 24.27 | b*value, 72 h [14, 23]: 6.37 | WHC, 72 h (Water Holding Capacity) [15]: 41.71%

Marks after values point to notes of the source that are not given here.
